According to PubChem BioAssay AID624297 (National Center for Advancing Translational Sciences (NCATS), 2012):
About 6,200 (1.8%) of roughly 340,000 compounds were called active. The shares of active, inactive and inconclusive entries below differ from those in the screen. Calls follow the shape of the dose curve; as a rule, active = well fitted activation curve with a large enough effect; inconclusive = small, poorly fitted or top-dose-only effect; inactive = no such curve, though single readings can be large or run the other way. Where the call is inconclusive, the potency comes from a doubtful curve fit.

test: A quantitative high throughput screen for small molecules that induce DNA re-replication in SW480 colon adenocarcinoma cells.; also: nearly all actives have a fitted effect of over 55% in size; as to re-replication activation: % of control where 0% means no effect; details: Hoechst DNA content imaging, 48 h; re-replication activation: at 46.1 µM (top of the series) unless noted
Summary of the method: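 DNA re-replication was detected as more nuclei of elevated Hoechst intensity after 48 hr exposure to compound (23 nL pinned per well of 250 cells).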
Potency is read from the fitted curve at half-maximal effect.

| SMILES | Potency | re-replication activation |
| --- | --- | --- |
| COCCN(CCOC)C(=O)C1CCCN(S(=O)(=O)c2ccc(NC(=O)OC)cc2)C1 (stereo not drawn) | inconclusive: 1.3 µM [activator, full curve, poor fit] |  |
| CC(C)[C@H](NC(=O)C1CCN(S(=O)(=O)c2ccccc2)CC1)C(=O)NCc1ccccn1 | inconclusive: 7.31 µM [activator, partial curve, poor fit] |  |
| Cc1nc2c(C(=O)NCCC(C)C)c[nH]n2c(=O)c1Cl | inconclusive: 32.6 µM [activator, partial curve, poor fit] |  |
| CCOC(=O)C1CCCN(C(=O)/C=C/c2ccc(OC)cc2)C1 (stereo not drawn) | inconclusive: 25.9 µM [activator, partial curve, poor fit] |  |
| CC12CCC(=O)C=C1CCC1C2CCC2(C)C1CC1C3C(=O)N(Cc4ccccc4)C(=O)C3CC(=O)C12 (stereo not drawn) | inconclusive: 16.4 µM [activator, single point] |  |
| COc1cccc(-c2cc(C(=O)Nc3nc4ccccc4s3)c3ccccc3n2)c1 | inactive |  |
| O=S(=O)(Nc1ccc(-n2cccc2)cc1)c1ccc(Cl)c(Cl)c1 | inconclusive: 18.4 µM [activator, single point] |  |
| ClCC1NCC(c2ccccc2Cl)c2c1[nH]c1ccccc21 (stereo not drawn) | inactive |  |
| COc1ccc(C(=O)C2CCCN(C(=O)CSC)C2)cc1OC (stereo not drawn) | inconclusive: 23.1 µM [activator, single point] |  |
| O=C(c1ccc(S(=O)(=O)Cc2cc(F)ccc2F)c([N+](=O)[O-])c1)N1CCCCC1 | inconclusive: 9.2 µM [activator, partial curve, poor fit] |  |
| CC(C)N(Cc1cc2ccccc2[nH]c1=O)C(=O)C(C)(C)C | inactive |  |
| CCN(C(=O)COC(=O)c1cc2c(s1)CCCC2)c1c(N)n(Cc2ccccc2)c(=O)[nH]c1=O | inconclusive: 0.0058 µM [activator, full curve, poor fit] |  |
| CC1=NN(C(=O)Cc2ccccc2)C(O)(c2cccnc2)C1 (stereo not drawn) | inconclusive: 3.26 µM [activator, full curve] |  |
| COc1ccc(C(=O)OCC(=O)NC2CC2)cc1F | inactive |  |
| CC1CCc2[nH]c3ccc(C(=O)O)cc3c2C1 (stereo not drawn) | inconclusive: 29.1 µM [activator, single point] |  |
| CC[C@H](CO)Nc1nc(Nc2cccc(Cl)c2)c2ncn(C(C)C)c2n1 | inconclusive: 2.91 µM [activator, full curve] |  |
| COc1cccc(Nc2nc(Nc3ccc(Cl)c(C(=O)O)c3)nc(C)c2[N+](=O)[O-])c1 | inactive |  |
| CC(=O)OCC(=O)Nc1c(C)cccc1C | inconclusive: 0.517 µM [activator, full curve, poor fit] |  |
| O=C(/C=C(\O)c1ccccc1)C(=O)NNC(=O)c1ccccc1[N+](=O)[O-] | inconclusive: 29.1 µM [activator, single point] |  |
| CCC(=NC)C1=C(O)CC(c2ccccc2)CC1=O (stereo not drawn) | inactive |  |
| COc1ccccc1CNC(=O)c1cc2ccccc2o1 | inconclusive: 6.51 µM [activator, single point] |  |
| COc1ccccc1CNC(=O)c1ccc2nc3[nH]c4ccccc4c3nc2c1 | inconclusive: 29.1 µM [activator, single point] |  |
| Cc1cc(C)cc(NC(=O)c2sc3nc(C)cc(C)c3c2N)c1 | inconclusive: 29.1 µM [activator, partial curve, poor fit] |  |

| SMILES | Potency | re-replication activation |
| --- | --- | --- |
| CCOc1ccc(NC(=S)Nc2cc(OC)c(Cl)cc2OC)cc1 | inactive |  |
| COc1ccc(N2CCN(C3CCCN(C(=O)CSC)C3)CC2)cc1 (stereo not drawn) | inactive |  |
| COc1cc(OC)c(C2=NOC(C(=O)NCc3cccnc3)C2)cc1Cl (stereo not drawn) | inconclusive: 29.1 µM [activator, single point] |  |
| COc1ccc(NC(=O)C(=O)NCC(c2ccco2)N2CCc3ccccc32)cc1 (stereo not drawn) | inconclusive: 1.64 µM [activator, full curve] |  |
| COc1cc(OC)c2c(-c3cccc(-c4cccc(N)c4)c3)cc(=O)oc2c1 | active: 3.66 µM |  |
| CCOC(=O)c1c(-c2ccc(C)cc2)csc1NC(=O)CCSc1nnc2ccccn12 | inactive |  |
| CC(C)(C)c1ccc(C(=O)N2CCN(CCNC(=O)C(=O)NCc3ccc(Cl)cc3)CC2)cc1 | inconclusive: 29.1 µM [activator, single point] |  |
| COc1ccc2[nH]c3c(c2c1)CCN1C(=O)C(CC(=O)NCCN2CCOCC2)C[C@H](C(=O)N(C(C)C)C(C)C)[C@@]31C (stereo partly drawn) | inactive |  |
| COc1ccc(N=C2NC(=O)CS2)c([N+](=O)[O-])c1 | inconclusive: 23.1 µM [activator, single point] |  |
| O=C(c1[nH]ncc1-c1cccc(Br)c1)C1CO1 (stereo not drawn) | inconclusive: 29.1 µM [activator, single point] |  |
| Cc1ccc(C(=O)Nc2nc(-c3ccc(F)cc3)cs2)o1 | inactive |  |
| CCCn1c2ccccc2c2cnn(CC(=O)NCCCN3CCCC(C)C3)c(=O)c21 (stereo not drawn) | inconclusive: 18.4 µM [activator, single point] |  |
| CCOC(=O)c1c(CN2CCN(C)CC2)n(-c2ccccc2)c2cc(Br)c(O)cc12 | inconclusive: 18.4 µM [activator, single point] |  |
| CC(C)c1ccc(NC(=S)NN(c2ccccc2)c2ccccc2)cc1 | inconclusive: 32.6 µM [activator, partial curve, poor fit] |  |
| COc1c(Cl)cnn(-c2ccc(C)cc2)c1=O | inconclusive: 29.1 µM [activator, single point] |  |
| Cc1ccc(C2(CCNC(C)c3cccs3)CCOC(C(C)C)C2)cc1 (stereo not drawn) | inconclusive: 20.6 µM [activator, single point] |  |
| Cc1cc(C)c(CN2CCN(CCCn3ccc(NC(=O)OCc4ccccc4)nc3=O)CC2)c(C)c1 | inconclusive: 18.4 µM [activator, partial curve, poor fit] |  |
| CCOc1ccccc1NC(=O)COc1cccnc1[N+](=O)[O-] | inactive |  |
| COCc1nnc(SCC(=O)NCc2ccccc2)n1-c1ccccc1 | inactive |  |
| O=C(NC1CC1)C1=C[C@@H](c2ccccc2)C[C@@H](OCCCCO)O1 | inconclusive: 3.66 µM [activator, single point] |  |
| CCc1ccc(NC(=O)C(C)OC(=O)c2cc(=O)[nH]c3ccc(S(=O)(=O)Nc4ccc(F)cc4)cc23)cc1 (stereo not drawn) | inactive |  |
| CCOC(=O)c1nnc(-c2ccccc2)nc1Sc1c(Cl)cccc1Cl | inconclusive: 29.1 µM [activator, single point] |  |
| CCC(=O)c1ccc(N2CCN(C(=O)c3cccs3)CC2)c(F)c1 | inconclusive: 29.1 µM [activator, single point] |  |

Two neighbouring entries already listed, quoted:

| SMILES | Potency | re-replication activation |
| --- | --- | --- |
| CCc1ccc(NC(=O)C(C)OC(=O)c2cc(=O)[nH]c3ccc(S(=O)(=O)Nc4ccc(F)cc4)cc23)cc1 (stereo not drawn) | inactive |  |
| CCOC(=O)c1nnc(-c2ccccc2)nc1Sc1c(Cl)cccc1Cl | inconclusive: 29.1 µM [activator, single point] |  |

Later entries:

| SMILES | Potency | re-replication activation |
| --- | --- | --- |
| COc1ccc(-n2nc(C(=O)NCCCN3CCCC3=O)c3c4ccccc4n(C)c3c2=O)cc1Cl | inconclusive: 23.1 µM [activator, single point] |  |
| O=C(Nc1ccc(O)c(-c2nc3ccccc3o2)c1)C1(c2ccc(Br)cc2)CCCC1 | inconclusive: 1.84 µM [activator, partial curve, poor fit] |  |
| Cc1ccc(-n2c(Cl)c(Cl)nc(Cl)c2=O)cc1 | active: 8.2 µM |  |
| O=C(N/N=C/C1CC=CCC1)c1ccccc1O (stereo not drawn) | inconclusive: 14.6 µM [activator, partial curve, poor fit] |  |
| O=C1NC[C@@H](Cc2cccc3ccccc23)N(CC2(c3ccccc3)CC2)C1=O | inconclusive: 6.51 µM [activator, single point] |  |
| Cc1cnc(C(=O)NC2CCSc3ccccc32)cn1 (stereo not drawn) | inconclusive: 7.31 µM [activator, partial curve, poor fit] |  |
| O=C1N=c2ccccc2=C1c1sc(=O)[nH]c1O | inconclusive: 23.1 µM [activator, single point] |  |
| O=C1C=C(c2ccccc2)CC(c2ccc(F)cc2)C1 (stereo not drawn) | inactive |  |
| CC(=O)NC(c1cc(Cl)c2cccnc2c1O)C(C)C (stereo not drawn) | inconclusive: 0.206 µM [activator, full curve, poor fit] |  |
| COc1ccc(C=CC(C)=NNC(=O)c2ccncc2)cc1 | inconclusive: 20.6 µM [activator, single point] |  |
| CSc1nnc(N2C(=O)C(O)=C(C(=O)c3ccc(C)o3)C2c2ccc(C)cc2)s1 (stereo not drawn) |  | inconclusive: 52.8% [activator] |
| CC(=O)Nc1cccc(Oc2ncnc3scc(-c4ccc(C(C)C)cc4)c23)c1 | inconclusive: 16.4 µM [activator, partial curve, poor fit] |  |
| COC(=O)c1cccc(C23CC4(C2)[C@H](CN(Cc2ccc(C(F)(F)F)cc2)[C@@H]4c2ccccc2)C3c2ccc(C(F)(F)F)cc2)c1 (stereo partly drawn) |  | inactive: -0.464% [at 9.22 µM] |
| CCOC(=O)N1CCN(Cc2nc(-c3cccs3)no2)CC1 | inconclusive: 29.1 µM [activator, single point] |  |
| COc1cccc(C(=O)COc2ccccc2-c2ccccc2)c1 | inconclusive: 18.4 µM [activator, partial curve, poor fit] |  |
| Cc1nc(N2CCOCC2)c2c(C)c(C(=O)Nc3ccccc3Cl)sc2n1 | inactive |  |
| CC(CNC(=O)CCC(=O)N1CCOc2ccccc21)c1ccccc1 (stereo not drawn) | inactive |  |
| Cc1ccc(-c2nc3cc(C)ccc3o2)cc1 | inactive |  |
| Nc1cc2ccncc2c2ccccc12 | inconclusive: 29.1 µM [activator, single point] |  |
| N#Cc1c(NC(=O)COC(=O)c2ccc(O)cc2O)sc2c1CCC2 | inactive |  |
| CCCCOCCCNC(=O)c1ccc(OCC)cc1 | inactive |  |
| Cc1ccc(S(=O)(=O)N2CCOCC2)cc1NC(=O)COC(=O)c1ccccc1OCc1c(C)noc1C | inactive |  |

Three compounds picked at random from those above:

| SMILES | Potency | re-replication activation |
| --- | --- | --- |
| O=C(N/N=C/C1CC=CCC1)c1ccccc1O (stereo not drawn) | inconclusive: 14.6 µM [activator, partial curve, poor fit] |  |
| COC(=O)c1cccc(C23CC4(C2)[C@H](CN(Cc2ccc(C(F)(F)F)cc2)[C@@H]4c2ccccc2)C3c2ccc(C(F)(F)F)cc2)c1 (stereo partly drawn) |  | inactive: -0.464% [at 9.22 µM] |
| Cc1ccc(-n2c(Cl)c(Cl)nc(Cl)c2=O)cc1 | active: 8.2 µM |  |
